Laboratory results from the supplement of paper PMC8326762, “A Small Molecule Inhibitor of Pex3–Pex19 Interaction Disrupts Glycosome Biogenesis and Causes Lethality in Trypanosoma brucei” (Frontiers in Cell and Developmental Biology, 2021).
Where a name gives a salt, the structure may show the parent alone. Some of the results follow. The data scatter; read single values as rough.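 Optical density at 600 nm measured yeast growth. Because the two-hybrid strains grew without histidine, growth required Pex3–Pex19 binding. Trypanosome selectivity meant a compound inhibited the trypanosome-pair strain's growth by more than 65% but the human-pair strain's by less than 65%.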

What was measured:
[1] = tested on: Saccharomyces cerevisiae HF7c pdr5Δ; assay: general growth inhibition of yeast HF7c pdr5Δ in -Leu -Trp medium, relative to DMSO; higher = stronger general growth inhibition; settings: 100 µM; 24 h
[2] = tested on: human PEX3-PEX19 interaction (yeast two-hybrid); assay: growth inhibition of yeast two-hybrid strain reporting HsPex3-HsPex19 interaction, relative to DMSO; higher = stronger inhibition of human Pex3-Pex19 interaction / growth; settings: 100 µM; 24 h; 3-aminotriazole 10 mM
[3] = tested on: T. brucei Pex3-Pex19 interaction (yeast two-hybrid); assay: growth inhibition of yeast two-hybrid strain reporting TbPex3-TbPex19 interaction, relative to DMSO; higher = stronger inhibition of T. brucei Pex3-Pex19 interaction / growth; settings: 100 µM; 24 h

CN1C(=O)CC[C@H]1c1cccnc1 [(-)-Cotinine]
general growth inhibition [1]: 40.8%
growth inhibition [2]: 45.5%
growth inhibition [3]: 64.4%

CC(=O)OCC(CCn1cnc2cnc(N)nc21)COC(C)=O [Famciclovir]
general growth inhibition [1]: 31.1%
growth inhibition [2]: 11.4%
growth inhibition [3]: 48.6%

COc1nc(C)nc(Cl)c1NC1=NCCN1 [Moxonidine hydrochloride]
general growth inhibition [1]: 53.4%
growth inhibition [2]: 51.2%
growth inhibition [3]: 69.6%

CC(C)N(CCC(=O)c1ccc2ccccc2c1)Cc1ccccc1
general growth inhibition [1]: 89.5%
growth inhibition [2]: 84.8%
growth inhibition [3]: 82.4%

COC(=O)[C@@H]1[C@H]2C[C@H]3c4[nH]c5ccccc5c4CCN3C[C@@H]2CC[C@@H]1O [Yohimbine hydrochloride]
general growth inhibition [1]: 40.4%
growth inhibition [2]: 37.4%
growth inhibition [3]: 59.5%

CCN(CC)CCCCCCCCOC(=O)c1cc(OC)c(OC)c(OC)c1 [TMB-8 hydrochloride]
general growth inhibition [1]: 36.4%
growth inhibition [2]: 36.5%
growth inhibition [3]: 65.4%

CCCOC(=O)c1c(-c2ccccc2)nc(CC)c(C(=O)SCC)c1CCC
general growth inhibition [1]: 34.6%
growth inhibition [2]: 50.4%
growth inhibition [3]: 55.5%

Cn1c(=O)[nH]c2ncn(C)c2c1=O [1,7-Dimethylxanthine]
general growth inhibition [1]: 36.6%
growth inhibition [2]: 48.4%
growth inhibition [3]: 68.9%

O=c1c2ccccc2[nH]c(=S)n1CCN1CCC(=C(c2ccc(F)cc2)c2ccc(F)cc2)CC1 [Diacylglycerol Kinase Inhibitor II]
general growth inhibition [1]: 74.8%
growth inhibition [2]: 70.1%
growth inhibition [3]: 71.1%

CCC(=O)N1CCN(C(=O)c2ccccc2)CC1
general growth inhibition [1]: 24.6%
growth inhibition [2]: 44.3%
growth inhibition [3]: 43%

CCN(CC)CCNC(=O)c1ccc(N)cc1 [Procainamide hydrochloride]
general growth inhibition [1]: 49.3%
growth inhibition [2]: 42.2%
growth inhibition [3]: 68.4%

NC(Cc1ccc(Cl)cc1)C(=O)O (racemic) [(±)-p-Chlorophenylalanine]
general growth inhibition [1]: 27.1%
growth inhibition [2]: 46%
growth inhibition [3]: 63.9%
